In paper PMC12332402:
These are yes or no findings as the source states them, for the method shown. In cells and extracts the contact can be indirect. Some entries that bind do so weakly or less than the wild type. For some of these results: Where a sequence is shown, tags or fusion partners need not be part of it.

The chains behind the UniProt entries cited, without tags or fusion partners.
UniProt Q9V7D2: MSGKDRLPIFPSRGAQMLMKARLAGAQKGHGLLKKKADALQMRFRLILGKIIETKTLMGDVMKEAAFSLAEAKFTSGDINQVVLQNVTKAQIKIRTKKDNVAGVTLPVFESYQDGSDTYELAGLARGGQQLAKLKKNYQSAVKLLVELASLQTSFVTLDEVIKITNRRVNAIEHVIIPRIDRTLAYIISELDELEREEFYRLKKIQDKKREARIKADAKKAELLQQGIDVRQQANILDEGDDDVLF
UniProt P12613: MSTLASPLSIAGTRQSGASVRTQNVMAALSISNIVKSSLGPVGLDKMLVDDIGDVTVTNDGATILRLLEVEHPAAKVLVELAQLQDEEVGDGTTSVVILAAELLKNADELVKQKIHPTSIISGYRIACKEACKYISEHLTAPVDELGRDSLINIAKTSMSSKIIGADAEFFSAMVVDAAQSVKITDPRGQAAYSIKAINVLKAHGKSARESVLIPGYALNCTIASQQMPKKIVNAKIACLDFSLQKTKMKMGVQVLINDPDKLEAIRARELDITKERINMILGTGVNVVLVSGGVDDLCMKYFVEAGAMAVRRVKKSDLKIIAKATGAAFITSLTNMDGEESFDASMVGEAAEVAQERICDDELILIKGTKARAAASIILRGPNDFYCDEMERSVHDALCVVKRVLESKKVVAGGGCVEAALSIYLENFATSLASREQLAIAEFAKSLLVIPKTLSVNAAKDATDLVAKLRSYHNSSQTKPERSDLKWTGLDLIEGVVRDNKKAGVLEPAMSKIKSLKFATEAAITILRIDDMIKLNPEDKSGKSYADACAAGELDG
UniProt P00722: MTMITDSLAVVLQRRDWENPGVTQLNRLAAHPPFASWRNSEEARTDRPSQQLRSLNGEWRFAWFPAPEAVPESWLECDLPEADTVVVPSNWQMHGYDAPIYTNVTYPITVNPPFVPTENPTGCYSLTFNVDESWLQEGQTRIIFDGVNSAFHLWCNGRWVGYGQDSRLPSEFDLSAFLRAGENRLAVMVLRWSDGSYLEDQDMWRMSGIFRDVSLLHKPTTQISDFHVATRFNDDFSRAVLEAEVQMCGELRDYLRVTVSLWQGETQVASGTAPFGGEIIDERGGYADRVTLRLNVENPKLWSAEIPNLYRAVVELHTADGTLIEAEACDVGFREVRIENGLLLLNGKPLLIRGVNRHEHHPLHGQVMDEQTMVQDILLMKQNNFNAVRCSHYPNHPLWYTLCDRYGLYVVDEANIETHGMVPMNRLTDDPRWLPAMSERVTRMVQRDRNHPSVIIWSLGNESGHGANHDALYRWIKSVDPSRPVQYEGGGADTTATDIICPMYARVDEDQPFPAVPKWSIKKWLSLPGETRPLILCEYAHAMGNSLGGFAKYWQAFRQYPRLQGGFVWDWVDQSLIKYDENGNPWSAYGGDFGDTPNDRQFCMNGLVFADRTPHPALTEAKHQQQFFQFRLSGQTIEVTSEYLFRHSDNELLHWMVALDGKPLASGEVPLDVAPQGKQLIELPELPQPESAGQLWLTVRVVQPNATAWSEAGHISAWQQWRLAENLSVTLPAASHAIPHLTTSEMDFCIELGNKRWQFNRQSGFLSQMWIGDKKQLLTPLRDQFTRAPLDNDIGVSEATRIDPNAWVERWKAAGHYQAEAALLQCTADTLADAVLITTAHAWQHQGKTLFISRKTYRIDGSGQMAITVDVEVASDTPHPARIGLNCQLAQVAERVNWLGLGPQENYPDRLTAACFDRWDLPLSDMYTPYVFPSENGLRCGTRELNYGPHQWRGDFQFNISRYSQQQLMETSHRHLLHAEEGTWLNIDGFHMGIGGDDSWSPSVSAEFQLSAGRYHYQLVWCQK

What was measured:
[1] = molecular target: V5-tagged Vha36-1 (Drosophila) (UniProt Q9V7D2); test: co-IP; S2 cells coexpressing V5-Vha36-1, HA-CCT1 and RagA^GTP or RagA^GDP (or LacZ); anti-V5 antibody-coated beads; Western blot
[2] = molecular target: V5-tagged Vha36-1 (Drosophila) (UniProt Q9V7D2); test: co-IP; S2 cells cotransfected; lysed in RIPA buffer; anti-V5 antibody-coated magnet beads, 6 h at room temperature, eight washes with lysis buffer; Western blot
[3] = molecular target: T1, V5-tagged Lamtor4 (Drosophila) (UniProt Q9VZL6); test: as above
T1 sequence: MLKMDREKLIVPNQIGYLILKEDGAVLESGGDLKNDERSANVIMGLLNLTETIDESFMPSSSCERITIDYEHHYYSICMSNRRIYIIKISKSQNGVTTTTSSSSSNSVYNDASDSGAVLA

Row | Substance | binding [1] | binding [2] | binding [3]
1 | HA-tagged CCT1 (from UniProt P12613 1-557) | binds | binds | –
2 | HA-tagged LacZ (from UniProt P00722 1-1024) | – | no binding | no binding
